Assay results reported in doi:10.1101/2020.02.21.958371.
No constants are given. Whether binding was seen depends on the method and setting. In cells and extracts the contact can be indirect. These calls come from enrichment with a bait or labelling near it, and not all partners need be listed. For some assays here: Tags and fused reporters may be left off the sequences shown.

T1: ROS1-3xFLAG-3xHA (3xFLAG-3xHA-tagged ROS1 under its native promoter in the ros1-13 mutant) (Arabidopsis) (UniProt Q9SJQ6)
T1 sequence: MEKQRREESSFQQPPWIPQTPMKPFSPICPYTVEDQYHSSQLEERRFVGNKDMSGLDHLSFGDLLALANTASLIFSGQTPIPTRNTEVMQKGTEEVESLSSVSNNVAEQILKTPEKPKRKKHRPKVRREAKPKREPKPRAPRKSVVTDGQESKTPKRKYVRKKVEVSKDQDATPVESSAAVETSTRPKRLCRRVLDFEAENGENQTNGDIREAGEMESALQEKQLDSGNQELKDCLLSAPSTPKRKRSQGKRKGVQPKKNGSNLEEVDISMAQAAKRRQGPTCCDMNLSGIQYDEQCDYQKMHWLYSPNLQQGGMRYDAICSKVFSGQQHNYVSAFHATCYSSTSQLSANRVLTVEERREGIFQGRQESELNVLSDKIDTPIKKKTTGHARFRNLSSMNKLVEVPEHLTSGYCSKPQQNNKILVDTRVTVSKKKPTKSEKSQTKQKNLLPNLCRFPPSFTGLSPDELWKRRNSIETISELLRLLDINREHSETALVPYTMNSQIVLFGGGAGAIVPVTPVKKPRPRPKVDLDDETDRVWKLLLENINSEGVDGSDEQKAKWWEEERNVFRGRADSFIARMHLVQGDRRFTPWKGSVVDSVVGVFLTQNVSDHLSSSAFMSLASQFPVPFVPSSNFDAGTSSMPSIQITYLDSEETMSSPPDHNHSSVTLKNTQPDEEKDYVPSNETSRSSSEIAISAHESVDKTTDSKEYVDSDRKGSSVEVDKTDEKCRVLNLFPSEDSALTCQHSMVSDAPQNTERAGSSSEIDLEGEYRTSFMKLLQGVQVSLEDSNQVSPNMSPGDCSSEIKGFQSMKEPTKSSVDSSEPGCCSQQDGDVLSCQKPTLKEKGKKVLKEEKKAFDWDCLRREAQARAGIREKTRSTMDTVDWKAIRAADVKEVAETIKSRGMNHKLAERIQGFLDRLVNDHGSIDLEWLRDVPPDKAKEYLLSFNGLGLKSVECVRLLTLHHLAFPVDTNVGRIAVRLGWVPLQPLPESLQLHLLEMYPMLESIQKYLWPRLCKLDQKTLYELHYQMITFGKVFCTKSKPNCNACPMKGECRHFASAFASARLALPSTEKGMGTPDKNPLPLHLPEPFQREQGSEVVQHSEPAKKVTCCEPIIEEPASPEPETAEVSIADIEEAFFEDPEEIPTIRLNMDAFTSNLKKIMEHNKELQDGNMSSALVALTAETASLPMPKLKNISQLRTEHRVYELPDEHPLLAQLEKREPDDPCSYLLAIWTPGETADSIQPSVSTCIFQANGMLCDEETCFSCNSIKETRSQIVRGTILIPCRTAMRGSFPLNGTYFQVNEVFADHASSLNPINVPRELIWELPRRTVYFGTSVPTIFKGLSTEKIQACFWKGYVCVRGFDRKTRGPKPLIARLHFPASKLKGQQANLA

B1: ROS1, endogenous in Arabidopsis (protein, UniProt Q9SJQ6 1-1393)
chain: T1 sequence

Key:
[1] = target: T1, ROS1-3xFLAG-3xHA (3xFLAG-3xHA-tagged ROS1 under its native promoter in the ros1-13 mutant) (Arabidopsis); assay: affinity purification with mass spectrometry
[2] = target: 3xFLAG-RWD40 fusion driven by the RWD40 native promoter in the rwd40-1 mutant background (Arabidopsis); assay: affinity purification with mass spectrometry

Row | Molecule | binding [1] | binding [2]
1 | RWD40, endogenous in Arabidopsis | binds | –
2 | B1 | – | binds
